Results taken from article PMC3219604.
Substitutions are numbered along the chain they refer to. Construct, isoform or probe ends are uncertain for at least one entry. Protein sequences can lack the tags named with them.

How the values were obtained:
Assay in all cases: EMSA
Settings in all cases: 20 mM Tris-Cl pH 8.0, 1 mM EDTA, 5 ug/mL calf thymus DNA, 10 nM DNA, 0.11-0.13 uM protein, 30 min at 20 C; gels at 4 C; recombinant protein; protein details: 6xHis, C-terminal GFPuv; label: 5'-32P upper strand
[1] = molecular target: T1, OrfAB-GFP GMF37 W49R W64R (UniProt P51026)
T1 sequence (looked up, limits assumed): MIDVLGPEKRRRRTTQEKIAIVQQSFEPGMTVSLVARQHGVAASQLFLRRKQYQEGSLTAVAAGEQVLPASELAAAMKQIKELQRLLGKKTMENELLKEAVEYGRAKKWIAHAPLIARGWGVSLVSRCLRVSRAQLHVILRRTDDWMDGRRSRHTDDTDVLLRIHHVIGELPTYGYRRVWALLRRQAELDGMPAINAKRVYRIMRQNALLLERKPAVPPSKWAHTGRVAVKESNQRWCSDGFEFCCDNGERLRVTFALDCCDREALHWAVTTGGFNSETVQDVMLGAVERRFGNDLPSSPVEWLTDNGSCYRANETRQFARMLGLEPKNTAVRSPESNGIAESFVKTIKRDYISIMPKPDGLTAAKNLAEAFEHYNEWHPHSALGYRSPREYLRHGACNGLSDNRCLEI

[2] = molecular target: T2, OrfAB-GFP GMF3 R291H R306H (UniProt P51026)
T2 sequence (looked up, limits assumed): T1 sequence (looked up, limits assumed) with R49W, R291H

[3] = molecular target: T3, OrfAB-GFP GMF18 A42T/L97H A57T,L112H (UniProt P51026)
T3 sequence (looked up, limits assumed): T1 sequence (looked up, limits assumed) with A42T, R49W, L97H

[4] = molecular target: T4, OrfAB-GFP GMF68 H267D H282D (UniProt P51026)
T4 sequence (looked up, limits assumed): T1 sequence (looked up, limits assumed) with R49W, H267D

[5] = molecular target: T5, OrfAB-GFP GMF6 Q79L Q94L (UniProt P51026)
T5 sequence (looked up, limits assumed): T1 sequence (looked up, limits assumed) with R49W, Q79L

[6] = molecular target: T6, OrfAB-GFP GMF9 R50H R65H (UniProt P51026)
T6 sequence (looked up, limits assumed): T1 sequence (looked up, limits assumed) with R49W, R50H

With “GGATCCTTAAGTGATAACAGATGTCTGGAAATATAGGGGCAAATCCAGCG (double strand) [IRR 50-mer]” the binding signal (binding score (0-5)) [1] was 5, the binding signal (binding score (0-5)) [2] was 2.5 and the binding signal (binding score (0-5)) [3] was 3.5. It also gave a binding signal (binding score (0-5)) [4] of 2.5, a binding signal (binding score (0-5)) [5] of 2.5 and a binding signal (binding score (0-5)) [6] of 3.
